Patent publication US5434068
For part of these data: Negatives hold for the conditions tested. Where a protein sequence is shown, tags need not be part of it.

Key:
[1] = target: T1, BglII modification methylase (M.BglII) (Bacillus globigii) (UniProt Q45489); test: activity in cells; conditions: methylated in vivo by M.BglII; in vivo methylation in E. coli RR1; protein in cells; variant of pAMB3 plasmid with BglII linkers; only the site is given
T1 sequence (looked up, limits assumed): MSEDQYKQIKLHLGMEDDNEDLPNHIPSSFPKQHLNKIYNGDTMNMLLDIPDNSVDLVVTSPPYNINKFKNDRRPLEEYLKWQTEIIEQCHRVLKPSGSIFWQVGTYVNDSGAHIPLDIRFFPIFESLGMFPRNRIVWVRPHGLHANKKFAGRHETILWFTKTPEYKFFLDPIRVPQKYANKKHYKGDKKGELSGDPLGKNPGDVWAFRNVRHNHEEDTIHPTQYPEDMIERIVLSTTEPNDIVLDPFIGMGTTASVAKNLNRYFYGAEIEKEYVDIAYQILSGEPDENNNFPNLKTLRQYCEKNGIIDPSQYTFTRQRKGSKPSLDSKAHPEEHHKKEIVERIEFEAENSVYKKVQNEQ

[2] = target: T2, BglII restriction endonuclease (UniProt Q45488); test: enzyme reaction in vitro; conditions: purified native protein, protein details: New England Biolabs
T2 sequence (looked up, limits assumed): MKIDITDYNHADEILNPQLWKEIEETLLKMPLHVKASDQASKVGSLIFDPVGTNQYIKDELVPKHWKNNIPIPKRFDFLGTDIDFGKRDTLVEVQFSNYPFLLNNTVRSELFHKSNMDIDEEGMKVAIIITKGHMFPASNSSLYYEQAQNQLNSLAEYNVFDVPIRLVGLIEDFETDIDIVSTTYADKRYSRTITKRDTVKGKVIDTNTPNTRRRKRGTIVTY

**Q.** “CAGATCTG (double strand) [pMB05 (pAMB3 carrying bglIIM, modified in vivo)]” was tested. Which “activity on this sequence” value [1] did it give?
**A.** active

**Q.** What about the “activity on this sequence” value ([2]; methylated in vivo by M.BglII, 15 of 16 surviving plasmids resistant, M.BglII-modified, variant of pAMB3 plasmid with BglII linkers, only the site is given) of the same sequence?
**A.** not active

**Q.** With “CAGATCTG (double strand) [pAMB3 plasmid with BglII linkers]” as the sequence, how does the “activity on this sequence” value ([2]; vector religated after loss of bglIIM insert) read?
**A.** active
